Results taken from publication PMC10163288.
The list shows a part of the results.

B1: il2ra_site2_2erj_sap_31_mot_HHH_b1_03572_af2_000000146_0001_41_56_H_._HHH_b2_06539_af2_0001_0000200005_0000001_0_0001 (protein)
chain: SSSSDELEERIEELLEELEKLVKEGDLARVLELAREIAELLRRLGDPELAKELNRLLQEAMSSSS
B2: il2ra_site1_2b5i_normal_mot_HHH_b2_04910_000000118_0001_1_19_H_._HHH_b1_00058_af2_0001_0000600017_0000001_0_af2pred_dldesign_0_af2pred (protein)
chain: SSSSSKKEEALRLFLEADELFQAGKAEEAKEKLEKARELAKEAGANLLVKIIDSALEDLESSSSS
B3: il2ra_site1_3nfp_sap_10_mot_HHH_b1_01159_af2_000000075_0001_1_20_H_._HHH_b1_01573_af2_0001_0000600012_0000001_0_0001_af2pred_0001_af2pred_1 (protein)
chain: SSSSDVEKEVEELLEEAEEALKNGDPEEALRLFEEARRLARENDDPELIRAVFKVLKEILSSSSS
B4: il2ra_site2_2erj_sap_26_mot_HHH_b2_00434_000000253_0001_22_38_H_._HHH_b2_02288_0001_0000100001_0000001_1_0001 (protein)
chain: SSSSDEELRRLFELASELMHALANGDEELAEEILEEIQKLAEELNTPRALEMAEEAFRLGSSSSS
B5: il2ra_site2_2erj_normal_mot_HHH_b1_07975_000000039_0001_41_57_H_._HHH_b1_00128_0001_0000400033_0000001_0 (protein)
chain: SSSSLEELYELAVLLLELIQNKDEEEFRKVLEEAERLAKETNNPNVEEMLEALEENFELLLSSSS
B6: il2ra_site2_2erj_normal_mot_HHH_b1_00612_000000025_0001_42_56_H_._HHH_b2_04071_0001_0000800020_0000001_0_af2pred_0001_af2pred (protein)
chain: SSSSSEEEELEELLEELKELLKEGDFERAREVTERIIRLALENNDPEVAELALRLLYEAASSSSS
B7: il2ra_site1_3nfp_sap_13_mot_57b9a5c33dea5cc23bad37243f109f8e_0001_af2_000000027_0001_36_50_H_._490c46be001311c379c03e06fdb6e4f5_0001_1_0001_0000300028_0000001_0 … (protein)
chain: SAAEFLVRALLRHGKPPEEILRQLREIAEQNGRPPEEVLREILEVAREVGDPELEELVEKELEET
B8: il2ra_site1_2b5i_normal_mot_HHH_b1_01495_af2_000000272_0001_42_56_H_._HHH_b1_03012_0001_0000300012_0000001_0_af2pred_dldesign_0_af2pred (protein)
chain: SSSSDEEYERAYDLALEALRLKREGKKEEAKEKLEEALRLLKKLGDEKLVAEVEYLLSKLSSSSS
B9: il2ra_site2_3nfp_sap_10_mot_HHH_b1_07830_000000093_0001_36_50_H_._HHH_b2_02492_0001_0000200013_0000001_0_0001 (protein)
chain: SSSDKAEEYVRLAEELAREALEEGDPEAARRHLELAELMIESQGDEEAQERLEELLEEVERRSSS
B10: il2ra_site2_2erj_normal_mot_HHH_b2_00484_af2_000000139_0001_42_55_H_._HHH_b1_00676_0001_0000600026_0000001_0 (protein)
chain: SSSSSDYEEIARRVSELLAELAHASEEERRRLLEEARELAEELNSPFLERYVEHARRHASSSSSS
B11: il2ra_site1_1z92_sap_26_mot_a6fd39a3fea750eb5223871b70f163d0_0001_af2_000000011_0001_17_33_H_._HHH_b2_07469_0001_0000200014_0000001_0_0001_af2pred_0001_af2pred_ … (protein)
chain: DELERLIEEILEELKKRDPQMEWAIRIIEKALKRDPRQAAKLLLRFLRNAGDPELVKELEELLRK
B12: il2ra_site1_2b5i_normal_mot_f5ff40796168375b462bec8614a1db4a_0001_1_000000138_0001_53_65_H_._HHH_b2_01775_0001_0000200012_0000001_0_af2pred_0001_af2pred_1 (protein)
chain: SSSSSTDAEHNIEALIEEAKKIEDPERARNILFLALAIARKKNNEELAEEIEELLEELDSSSSSS
B13: il2ra_site1_1z92_normal_mot_HHH_b2_05172_af2_000000284_0001_1_18_H_._HHH_b1_04814_0001_0000100013_0000001_0 (protein)
chain: SSSDYEVQEELAQIISRLVAEFGLDLEQIKKLDELARELEERGVSLEEIEELLEELAEELKSSSS
B14: il2ra_site2_2erj_normal_mot_HHH_b2_06291_af2_000000033_0001_23_39_H_._HHH_b2_06475_0001_0000500037_0000001_0_af2pred_0001_1_af2pred_swapped (protein)
chain: SSSSSEAEEAFELARELVEEGDLRRAAAVAVRAAAAALEEGDEELLKQIRKLYAELAELLRSSSS
B15: il2ra_site1_3nfp_sap_9_mot_HHH_b1_04931_000000291_0001_38_56_H_._HHH_b2_06296_af2_0001_0000400019_0000001_0_0001_af2pred_0001_af2pred_swapped (protein)
chain: SSSSSHSREFERLAKEASELLKKGDPEKVEELLERLREIAEEANSPNAKEFVERLERLIKSSSSS
B16: il2ra_site1_2b5i_sap_29_mot_21795611afd35a64f51a6f0208d15af2_0001_af2_000000256_0001_37_51_H_._e3696887754c6fba9273a780f7a942e0_0001_0001_0000700056_0000001_1_0 … (protein)
chain: SSSSSSARARELLLRAEAALKAGNREELARLLAELEALAEARNSRFARRALELLREALSSSSSSS
B17: il2ra_site2_2erj_normal_mot_HHH_b1_02757_000000121_0001_41_57_H_._HHH_b1_00883_0001_0000100001_0000001_0_af2pred_0001_1_af2pred_swapped (protein)
chain: SSSSSSSDEEEVEELLEEAKKIKDPREALKLLQEAAQIADENDNDELIKLIDELLQESSSSSSSS
B18: il2ra_site2_3nfp_sap_16_mot_HHH_b1_04084_000000061_0001_23_39_H_._HHH_b1_01148_af2_0001_0000100002_0000001_0_0001_af2pred_0001_1_af2pred_swapped (protein)
chain: PDWELVEEVAKILGDPQFRSIVFAAVAELVFKGDEEELKKISEKLKEIVEKNDPELARELLEELK

Biological target: il2ra, P01589
Assay: yeast display titration

Apparent Kd, inactive:
B1 no binding seen
B2 no binding seen
B3 no binding seen
B4 no binding seen
B5 no binding seen
B6 no binding seen
B7 no binding seen
B8 no binding seen
B9 no binding seen
B10 no binding seen
B11 no binding seen
B12 no binding seen
B13 no binding seen
B14 no binding seen
B15 no binding seen
B16 no binding seen
B17 no binding seen
B18 no binding seen

Copied from the listing (3 entries):
Apparent Kd, inactive:
B5 no binding seen
B6 no binding seen
B7 no binding seen
